From article PMC7052939

Biological target: T1, ITGB7 (human (endogenous in MHCC-LM3 and Bel-7402)) (UniProt P26010)
T1 sequence: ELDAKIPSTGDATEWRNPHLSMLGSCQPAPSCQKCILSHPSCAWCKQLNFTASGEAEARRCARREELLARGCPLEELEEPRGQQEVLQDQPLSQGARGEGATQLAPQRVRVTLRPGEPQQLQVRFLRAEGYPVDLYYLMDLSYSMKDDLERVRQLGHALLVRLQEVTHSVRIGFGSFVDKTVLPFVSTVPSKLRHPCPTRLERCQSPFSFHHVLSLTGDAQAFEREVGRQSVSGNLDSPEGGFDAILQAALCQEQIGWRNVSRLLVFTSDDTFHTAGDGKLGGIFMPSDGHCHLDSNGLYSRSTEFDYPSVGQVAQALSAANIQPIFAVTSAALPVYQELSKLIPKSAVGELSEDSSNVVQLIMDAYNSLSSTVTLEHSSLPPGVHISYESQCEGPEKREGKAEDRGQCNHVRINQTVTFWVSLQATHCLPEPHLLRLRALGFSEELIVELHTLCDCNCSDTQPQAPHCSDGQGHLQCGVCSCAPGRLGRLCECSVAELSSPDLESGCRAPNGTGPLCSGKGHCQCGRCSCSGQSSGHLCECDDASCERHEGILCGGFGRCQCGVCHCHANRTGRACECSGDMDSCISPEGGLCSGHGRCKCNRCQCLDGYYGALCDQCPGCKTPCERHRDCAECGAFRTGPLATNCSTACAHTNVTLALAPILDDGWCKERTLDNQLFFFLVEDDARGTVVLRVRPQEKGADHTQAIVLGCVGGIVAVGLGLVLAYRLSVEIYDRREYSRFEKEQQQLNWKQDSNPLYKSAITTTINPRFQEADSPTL
Test: co-IP; endogenous proteins in MHCC-LM3 and Bel-7402 lysates (NP-40 lysis buffer, PMSF); pre-cleared with Protein A+G Agarose; 2 micrograms primary antibody overnight at 4°C; Protein A+G Agarose 3 hours at 4°C; washed five times with PBS; Western blot

Substance: VEGF (human (endogenous in MHCC-LM3))
- binding: binds

No constants are given. Whether binding was seen depends on the method and setting. In cells and extracts the contact can be indirect. A result given as binding can be weak or reduced; the word gives no strength.
